# Data published in PubChem BioAssay AID2685 (National Center for Advancing Translational Sciences (NCATS), 2010).
# This is one part of the list. These are further read-outs of the screen, such as a control signal, another cell line or another target. No call is given for them. Compounds called inactive in the main read-out are mostly missing here. Potencies come from curve fits of mixed quality, noted in brackets. Where a SMILES comes first, the peptide text is derived from it. The star is where a group is joined. Cbz = O=C(OCc1ccccc1)*
# Test: qHTS Assay for Lipid Storage Modulators in Drosophila S3 Cells;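 as to cell number change: cells counted by Cell Tracker Red CMTPX staining in the red channel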
# Conditions: BODIPY lipid droplet fluorescence, 18-24 h; for cell number change: measured here: cell count max response, cells fed with added oleic acid
# Summary of the method: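 Laser-scanning cytometry quantifies lipid droplet accumulation (500–530 nm total intensity; droplet/cell object ratio) in oleic acid-fed (400 uM added) Drosophila S3 cells treated with a concentration series. 20 uM Triacsin C defined 100% inhibition.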
# [1] = measured here: lipid fluorescence (Fed channel) AC50, cells fed with added oleic acid
# [2] = measured here: cell number channel AC50, cells fed with added oleic acid
Structure (SMILES),AC50 [1],cell number change,AC50 [2]
O=[N+]([O-])c1cccc(Nc2c([N+](=O)[O-])ccc3nonc23)c1,"20.6 µM [falling, single point]",,
COC(=O)CSc1ccccc1C(=O)OC,,-25.4%,
COc1ccc(C2=NOC(C(=O)Nc3c(C)n(C)n(-c4ccccc4)c3=O)C2)cc1OC (stereo unspecified),"2.31 µM [rising, single point]",3.41%,
CC(=O)c1cnc(-c2ccccc2)s1,,-7.73%,
O=C(O)c1ccc(-c2nnc(-c3ccc([N+](=O)[O-])cc3)o2)cc1,,-16.8%,
CCC(=O)Nc1sc(C(=O)N2CCCCC2)c(C)c1C#N,"4.61 µM [rising, partial curve, poor fit]",15.4%,
CN(c1ccc(C(=O)N2CCCCCC2)cc1)S(=O)(=O)c1ccccc1,"5.8 µM [falling, partial curve]",,
CC(C)=CC(=O)OCC(=O)NC(=O)NC(C)(C)C,"25.9 µM [falling, partial curve]",-135%,"29.1 µM [falling, partial curve]"
O=C(NCC1CCCO1)c1ccccc1S(=O)(=O)c1ccc([N+](=O)[O-])cc1 (stereo unspecified),"0.651 µM [falling, partial curve, poor fit]",-8.47%,
Cc1ccc(C(=O)NCCn2c(N)c(C#N)c3nc4ccccc4nc32)cc1,"0.82 µM [rising, partial curve]",-16.7%,
COc1ccc2[nH]c(C(=O)NCCN3CCCCC3)cc2c1,"6.51 µM [falling, single point]",-13.2%,
COc1ccccc1CCNC(=O)c1ccc2nc[nH]c2c1,"4.61 µM [falling, single point]",0.758%,
COc1ccc(S(=O)(=O)N(C)c2ccc(C(=O)N3CCC(C(N)=O)CC3)cc2)cc1OC,,-52.8%,
COc1ccc(OC)c(CNC(=O)CCS(=O)(=O)c2ccc3c(c2)oc(=O)n3C)c1,,9.43%,
COc1cccc(NC(=O)CN(C)C(=O)c2ccc(COc3ccccc3)cc2)c1,"6.51 µM [rising, single point]",3.25%,
Cc1onc(-c2ccccc2)c1C(=O)N/N=C/c1cc(Br)c(O)c(Br)c1,"7.31 µM [rising, partial curve]",-4.14%,
CCCCC(=O)Nc1ccc2c(c1)nc(CCN1CCN(C)CC1)n2C,"6.51 µM [rising, single point]",11.3%,
CCCN(CC(=O)Nc1ccccc1OC)C(=O)CSc1nc(C)cc(C)n1,"6.51 µM [falling, single point]",,
Fc1ccc(NC(=S)N2CCOCC2)c(F)c1,"0.398 µM [rising, full curve, poor fit]",,
Cc1cccc(C(=O)OC(C)CN2CCCC2)c1 (stereo unspecified),"29.1 µM [falling, single point]",-13.5%,
CN(C)c1nnnn1Cc1ccc(Cl)cc1Cl,"14.6 µM [falling, partial curve]",-39.9%,"0.0731 µM [falling, partial curve, poor fit]"

# Some of the entries above in a different format.
Structure (SMILES)	AC50 [1]	cell number change	AC50 [2]
Cc1ccc(C(=O)NCCn2c(N)c(C#N)c3nc4ccccc4nc32)cc1	0.82 µM [rising, partial curve]	-16.7%	
COc1ccc2[nH]c(C(=O)NCCN3CCCCC3)cc2c1	6.51 µM [falling, single point]	-13.2%	

# The list continues:

Structure (SMILES),AC50 [1],cell number change,AC50 [2]
CCOC(=O)NNC(=O)c1ccc(Cl)cc1,,8.13%,
CCOc1ccc(NC(=O)CN(C)C(=O)c2cc(C)nc3ccccc23)cc1OCC,"0.146 µM [falling, full curve, poor fit]",-26.3%,
Cc1cccc(NC(=O)NNC(=O)c2c(Cl)c(C)nn2C)c1,"0.116 µM [falling, partial curve, poor fit]",,
COc1ccc(OC)c(/C=N/NC(=O)c2cc3c(OC)cccc3[nH]2)c1,"1.46 µM [rising, partial curve]",11.7%,"1.46 µM [rising, partial curve]"
O=C(CSc1nnc(CCCN2C(=O)c3cccc4cccc(c34)C2=O)n1-c1ccccc1)N1CCN(CCO)CC1,"29.1 µM [rising, single point]",24.8%,
Cc1ccc(C(=O)Nc2ccc(NC(=O)c3ccco3)c(C)c2)cc1,"29.1 µM [falling, single point]",5.04%,
CC(/C=N/NC(=O)c1ccccc1F)=C\c1ccccc1,,-42.6%,"16.4 µM [falling, single point]"
O=C1C=CC(=O)N1N(c1ccccc1)c1ccccc1,"25.9 µM [falling, partial curve, poor fit]",,
O=c1c2[nH]cnc2n(-c2ccc(F)cc2)c(=O)n1Cc1ccccc1,"0.58 µM [falling, single point]",-12.5%,
CCN(C(=O)Cc1cccs1)c1nnc(-c2cccnc2)s1,"29.1 µM [rising, single point]",6.79%,
Cc1ccc(C(=O)N2c3ccccc3NC(=O)C2C)cc1 (stereo unspecified),,-7.87%,
CC1=C(C(=O)O)N2C(=O)C(NC(=O)c3ccc(F)cc3)C2SC1 (stereo unspecified),"7.31 µM [rising, single point]",15.4%,
COc1ccc(C2=NN(C(=O)CSc3nc(=O)n4ccc(C)cc4n3)C(c3ccc(C)cc3)C2)cc1 (stereo unspecified),"1.84 µM [rising, partial curve]",45.3%,"1.84 µM [rising, partial curve]"
C=CCN1C(=O)c2ccc(C(=O)NCC(=O)Nc3c(C)cc(C)cc3C)cc2C1=O,"0.82 µM [falling, full curve, poor fit]",-21.4%,
Cc1cc(C)n2cc(CSc3ccc(Br)cc3)nc2n1,"18.4 µM [rising, single point]",44.8%,"23.1 µM [rising, single point]"
O=C(CSc1ccsc1[N+](=O)[O-])NCc1ccccc1,,-27.9%,
COc1ccc(C)cc1NC(=O)CSc1nnc(COc2ccc(C)cc2)n1Cc1ccco1,"29.1 µM [falling, single point]",-33.9%,"18.4 µM [falling, partial curve]"
C=CCOc1ccccc1CN1CCC(n2nccc2NC(=O)C2CCOC2)CC1 (stereo unspecified),"3.66 µM [falling, full curve, poor fit]",-12.3%,
CCOc1ccc(C(=O)N(Cc2ccccc2)c2cccc(C)c2)cc1OC,,-1.62%,
Cc1ccc(SCC(=O)NCC(C)C)cc1,"0.0259 µM [falling, full curve, poor fit]",1.19%,
CCCCOC(=O)c1ccc(NC(=O)c2c(Cl)ccc(Cl)c2OC)cc1,"18.4 µM [rising, partial curve]",-6.58%,

Structure (SMILES),AC50 [1],cell number change,AC50 [2]
Cc1cc(NC(=O)CCC(=O)N(CC(=O)NCC2CCCO2)c2ccc(C(C)C)cc2)no1 (stereo unspecified),,-8.57%,
COc1ccc(NC(=O)c2cc3ccccc3o/c2=N\NS(=O)(=O)c2ccc(C)cc2)cc1,,10.7%,
CCOC(=O)Nc1sc2c(c1C(=O)OCC)CCC2,"29.1 µM [rising, single point]",1.85%,
Cc1onc(-c2ccccc2Cl)c1C(=O)NCc1ccc(S(N)(=O)=O)cc1,,16.3%,
CN1CCN(c2nc3c(c(=O)n(C)c(=O)n3C)n2Cc2cccc(Br)c2)CC1,"0.58 µM [rising, single point]",-7.67%,
Cc1c(Cl)c([N+](=O)[O-])nn1CC(=O)N1CCN(C23CC4CC(CC(C4)C2)C3)CC1,,2.86%,
O=C(NC1CCCCC1)C(c1ccccc1)N(C(=O)Cc1ccsc1)c1ccccc1 (stereo unspecified),"6.51 µM [falling, single point]",,"1.3 µM [falling, partial curve]"
COC(=O)C(CO)NC(=O)C1CCCN1C(=O)CNC(=O)OCc1ccccc1 (stereo not drawn) (Cbz-Gly-Pro-Ser-OMe; configuration not given here),"18.4 µM [rising, single point]",35.6%,"32.6 µM [rising, partial curve, poor fit]"
c1ccc(N2CCN(Cc3ccsc3)CC2)nc1,"0.411 µM [falling, full curve, poor fit]",10.1%,
N#Cc1ccccc1NC(=O)CN1C(=O)NC(Cc2c[nH]c3ccccc23)C1=O (stereo unspecified),,3.68%,
O=C(CCCC(=O)OCC1CCCO1)OCC1CCCO1 (stereo unspecified),"4.11 µM [falling, partial curve, poor fit]",-13.7%,
CN(C(=O)CSc1ncnc2ccccc12)C1CCCCC1,"2.06 µM [falling, partial curve]",,
C/C=C(/C)C(=O)OC1Cc2c(ccc3ccc(=O)oc23)OC1(C)C (stereo unspecified),"29.1 µM [falling, single point]",-51.9%,"18.4 µM [falling, single point]"
CC(CCc1ccccc1)NC(=O)CCc1cn(C)c2ccccc12 (stereo unspecified),"29.1 µM [rising, single point]",75.4%,"29.1 µM [rising, single point]"
C#CCn1c(=NC(=O)c2cccs2)sc2cccc(OCC)c21,"6.51 µM [rising, single point]",4.73%,
O=C(NCc1ccco1)c1cc(S(=O)(=O)N2CCOCC2)c(Cl)cc1Cl,"2.06 µM [falling, full curve, poor fit]",0.68%,
O=C(CCn1nnc2ccccc21)OCC(=O)c1ccc([N+](=O)[O-])cc1,"0.82 µM [falling, full curve]",,
COc1ccc([C@H]2CC(=O)C=C(c3ccc4ccccc4c3)C2)cc1OC,"0.184 µM [rising, full curve, poor fit]",-15.6%,
COc1cc(/C=C/C(=O)OCC(=O)c2ccc(S(=O)(=O)N3CCCCC3)cc2)cc(OC)c1OC,"29.1 µM [rising, single point]",10.4%,
CCCCNC(=O)N(O)C1N(/N=C/c2ccccc2O)C(=S)SC1(C)C (stereo unspecified),,24.3%,
Cc1cccc(NS(=O)(=O)c2ccc3[nH]c(=O)cc(C(=O)OC(C)C(=O)Nc4ccc([N+](=O)[O-])cc4)c3c2)c1 (stereo unspecified),,-22.8%,

# Rewritten tab-delimited: 2 of the compounds above
Structure (SMILES)	AC50 [1]	cell number change	AC50 [2]
CCOC(=O)Nc1sc2c(c1C(=O)OCC)CCC2	29.1 µM [rising, single point]	1.85%	
Cc1onc(-c2ccccc2Cl)c1C(=O)NCc1ccc(S(N)(=O)=O)cc1		16.3%	
